The list shows a part of the results.

Amino acid sequences for entries named in this document (tags omitted).
UniProt Q0JBA9, entry or part of it: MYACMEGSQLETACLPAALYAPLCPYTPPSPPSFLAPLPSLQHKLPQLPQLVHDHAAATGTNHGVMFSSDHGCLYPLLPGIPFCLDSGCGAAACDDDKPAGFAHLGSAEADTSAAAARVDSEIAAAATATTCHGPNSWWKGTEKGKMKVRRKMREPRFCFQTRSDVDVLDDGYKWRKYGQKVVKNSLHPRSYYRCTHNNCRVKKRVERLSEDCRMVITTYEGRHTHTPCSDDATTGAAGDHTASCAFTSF

The assay concerns the target OsWRKY34 (Oryza sativa, UniProt Q0JBA9 1-250). The experiment in a line: protein-binding microarray (RPBM); PBS, 2% BSA, 51.3 ng/ul salmon testes DNA, 50 uM zinc acetate, 200 nM TF, 25 C, 1 h; high values mean tight binding. The conditions noted are these: protein: recombinant; tags: N-terminal polyhistidine and DsRed monomer fusion (pET32a); label: CyDye5-dUTP incorporated in the synthesized complementary strand; 3' TTTTT single-stranded linker to array surface; dsDNA, one strand shown. The gist of the method: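 The binding signal for each feature is its fluorescence intensity in arbitrary units. An Axon 4000B scanner was used to read a custom Agilent array that had been made double-stranded with Cy5-dUTP primer extension, blocked with 2% BSA, incubated at 25 °C for 1 h with 200 nM protein in PBS, 2% BSA, salmon testes DNA and 50 µM zinc acetate, and washed. The protein was an N-terminal polyhistidine–DsRed transcription factor fusion from E. coli BL21-CodonPlus, purified on Ni–NTA.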
For “TCTCTTTTCACCCACCGCACCCATCCAACTTCTCTTCTCTCGGAGTCACCTAGTGCAG”, the binding signal was 17900 fluorescence intensity (a.u.). Next, “CGGGTGGGGATGGGCTGGATCTGGATTGATTGGGAGTGTTCGGAGTCACCTAGTGCAG”: 15200 fluorescence intensity (a.u.); “GAGCCTATAAATAACCATTGTGGATGCCTTCCATGTTGACCGGAGTCACCTAGTGCAG”: 8640 fluorescence intensity (a.u.).

With “TCTTCCATTACTACTAGTCTACTACTCTCTCGCTCTTTCTCGGAGTCACCTAGTGCAG”, the binding signal was 9290 fluorescence intensity (a.u.). Turning to “TTGGTTCATTGTGGTTTTCTAGGCCTTTATAATTTCTTCACGGAGTCACCTAGTGCAG”, the binding signal was 9460 fluorescence intensity (a.u.). Consider “GACCTGATCACCTGAGCCAGTCCACGTACGTACGCCCGACCGGAGTCACCTAGTGCAG”, for which the binding signal was 8420 fluorescence intensity (a.u.).

In the case of “ATTTTTGACGCTTCCGCAATGCTTATGTTTTAGAGGAGTTCGGAGTCACCTAGTGCAG”, the binding signal was 9120 fluorescence intensity (a.u.). Next, “GTGAGGACGGCCTGCGGGTGCATGCGGGCGCAACAAGTAGCGGAGTCACCTAGTGCAG”: 17500 fluorescence intensity (a.u.); “TCTCATCGATCTTATAGGTTCATTGTATACGCAACCCAAACGGAGTCACCTAGTGCAG”: 8610 fluorescence intensity (a.u.). Turning to “GACTATGCGTCTATGCCCTACGCGGCTACGCCTCGATCACCGGAGTCACCTAGTGCAG”, the binding signal is 8570 fluorescence intensity (a.u.). As for “TCCCCGTGGCATGGCAGCAATAGATGGGCAGCGGCGTCGGCGGAGTCACCTAGTGCAG”, the binding signal was 10900 fluorescence intensity (a.u.).

In the case of “TGCGGTTGGCTATAAATCGGTAGCCCGACTGGCTACAAATCGGAGTCACCTAGTGCAG”, the binding signal was 8820 fluorescence intensity (a.u.).

Take “TACTCTCTCTTTTCCATAAAGGTTTCATTTTTGGGTTTTTCGGAGTCACCTAGTGCAG”: the binding signal was 8390 fluorescence intensity (a.u.).

Regarding “CTCTCTTTCTTTCGATGCTTCGACGAACTTGACTATTTGCCGGAGTCACCTAGTGCAG”, the binding signal was 8500 fluorescence intensity (a.u.). In the case of “TATATGTTGTTGTTTTATGAAATTTATTTTTTTTTTAAATCGGAGTCACCTAGTGCAG” it was 8430 fluorescence intensity (a.u.); in that of “TTTACCCTTAGCTACATATATATTTGTGTTCGTCCTATCCCGGAGTCACCTAGTGCAG”, 10200 fluorescence intensity (a.u.). Next, “TCTCCATCTGTATGCGTAACCTGACGCCGCCGTCGCCTCCCGGAGTCACCTAGTGCAG”: 10300 fluorescence intensity (a.u.); “ATGTGGTAAAAAAGTGCCATTCACTCTCTTTAATTTTCACCGGAGTCACCTAGTGCAG”: 8750 fluorescence intensity (a.u.); “CCGTCGCCGTCTCCCGCCTCATCAAGCTCTGCGTCCGCCACGGAGTCACCTAGTGCAG”: 10200 fluorescence intensity (a.u.). Next, “AAATGCATATCTATAGCTCGTGTGTTGTGATGGTTGGCTACGGAGTCACCTAGTGCAG”: 8570 fluorescence intensity (a.u.). In the case of “ATCCTCTCTCACTTAGAACAACCCAATCATCTCCTTGTAACGGAGTCACCTAGTGCAG”, the binding signal is 8670 fluorescence intensity (a.u.). Next, “ATTGGAGGGAAGAATTGCTTCCATGCTTACTCAACCTTACCGGAGTCACCTAGTGCAG”: 8130 fluorescence intensity (a.u.); “TCTTGGCGCTGTCGGTGTGTGGGTGGCGTTATATTTTTTTCGGAGTCACCTAGTGCAG”: 9900 fluorescence intensity (a.u.); “GTGGTGTGCGTCGCGTGGAGACATGTGCGAAATGCCGGGGCGGAGTCACCTAGTGCAG”: 8300 fluorescence intensity (a.u.). In the case of “AGTTGCTTTTGTTGGGTTCAAATTCTGGCCCGTCACAGGCCGGAGTCACCTAGTGCAG” it was 9120 fluorescence intensity (a.u.). Next, “ATTTAGTGGGCATGTTCTTCTCCATTCTCTTCATGTGTACCGGAGTCACCTAGTGCAG”: 9040 fluorescence intensity (a.u.). For the sequence “AAGAAGTTAACAGAGCCCACAGGCCACAGATGTGTTTGACCGGAGTCACCTAGTGCAG”, the binding signal was 8410 fluorescence intensity (a.u.).

For the sequence “GCTAGAAAATAGTGGGGATGGTGTATGCATTGAGTTTGTTCGGAGTCACCTAGTGCAG”, the binding signal is 15800 fluorescence intensity (a.u.). Next, “TCTATTCATAGTCAAATTTGTTATTTTTGTTTCTAATTGTCGGAGTCACCTAGTGCAG”: 11200 fluorescence intensity (a.u.). As for “GCTACCACCACCCATCCCCACCACCACCACCACCTCCCTTCGGAGTCACCTAGTGCAG”, the binding signal is 9500 fluorescence intensity (a.u.). In the case of “TGGTCAACACCGATGTGCTTCTAGTACTTCTCTTTTCTCACGGAGTCACCTAGTGCAG” it was 9570 fluorescence intensity (a.u.); in that of “GAGCTCACCACACACTCGCTACCCTACTTCTTCTGTTCGTCGGAGTCACCTAGTGCAG”, 9820 fluorescence intensity (a.u.). As to “ATGTTTTTCAAAAATACTAACCAGTGTGTTCTTTTTTTTTCGGAGTCACCTAGTGCAG”, the binding signal was 8500 fluorescence intensity (a.u.). As for “ATTTCGGATTTGTATGTATTGTGTTTTTTTAAAAAAAATTCGGAGTCACCTAGTGCAG”, the binding signal was 9880 fluorescence intensity (a.u.). With “ATTTTGGCTTCAATCCAAACACAATTTTACCTTTGCCAAACGGAGTCACCTAGTGCAG”, the binding signal is 8030 fluorescence intensity (a.u.). In the case of “ATCTGATCCCTGCTCGATCTCTTCTACTACCGAAACACAACGGAGTCACCTAGTGCAG” it was 8520 fluorescence intensity (a.u.); in that of “TACACACGCTAGAGGAGGAGATGGGTTGGTAGAGGGGAGGCGGAGTCACCTAGTGCAG”, 8580 fluorescence intensity (a.u.).

Take “ATTATGGTGTTTCTTAATTGCTTTTTGCTTTTTATTATATCGGAGTCACCTAGTGCAG”: the binding signal is 8170 fluorescence intensity (a.u.).

On to “CTCTCCATCAGCAAGCAAGGTATCGATCAGGCATCACCCACGGAGTCACCTAGTGCAG”, for which the binding signal is 9800 fluorescence intensity (a.u.).

With “GAGTGGTTAAGGTATGGATGAGGTCTATATGTATACATGTCGGAGTCACCTAGTGCAG”, the binding signal was 9050 fluorescence intensity (a.u.).

Turning to “CACTCACACACACACACAATACAACAAGCCTACAACTCATCGGAGTCACCTAGTGCAG”, the binding signal is 8440 fluorescence intensity (a.u.). As to “GACCTGTTTTTCATTTTAAACCAGAGCTACCGATGGGTTTCGGAGTCACCTAGTGCAG”, the binding signal is 8520 fluorescence intensity (a.u.).

(Values after publication PMC7819943, “Rice protein-binding microarrays: a tool to detect cis-acting elements near promoter regions in rice”.)
